# Assay results from paper PMC3900384.
# T1: AtRING1a (Arabidopsis thaliana) (UniProt Q9FKW0)
# T1 sequence: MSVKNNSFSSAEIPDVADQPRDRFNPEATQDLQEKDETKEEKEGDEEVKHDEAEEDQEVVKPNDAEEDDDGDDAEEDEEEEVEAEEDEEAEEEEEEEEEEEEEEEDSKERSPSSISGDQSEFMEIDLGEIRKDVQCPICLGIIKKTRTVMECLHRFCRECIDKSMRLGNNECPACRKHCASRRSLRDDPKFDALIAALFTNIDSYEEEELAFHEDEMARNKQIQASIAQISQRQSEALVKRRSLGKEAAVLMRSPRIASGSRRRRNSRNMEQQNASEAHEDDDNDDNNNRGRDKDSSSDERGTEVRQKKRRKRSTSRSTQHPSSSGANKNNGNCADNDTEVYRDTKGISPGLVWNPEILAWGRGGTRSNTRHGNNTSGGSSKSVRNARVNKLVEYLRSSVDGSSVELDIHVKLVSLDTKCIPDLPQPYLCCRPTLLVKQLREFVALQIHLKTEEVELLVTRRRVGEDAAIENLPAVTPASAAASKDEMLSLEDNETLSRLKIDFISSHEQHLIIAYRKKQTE
# Tests used:
# [1] = biological target: T1, AtRING1a (Arabidopsis thaliana); assay: two-hybrid; pairwise tests of pGBKT7 and pGADT7 constructs in S. cerevisiae PJ69-4a; growth on SD lacking Leu, Trp and Ade (SD-LTA)
# [2] = biological target: AtBMI1b-GFP (Arabidopsis thaliana); assay: FRET or BRET; FLIM: GFP and RFP fusions transiently co-expressed in Nicotiana benthamiana leaves; decrease of GFP fluorescence lifetime in nuclei, more than 5% counted as interaction
# [3] = biological target: AtBMI1b (Arabidopsis thaliana); assay: two-hybrid; pairwise tests of pGBKT7 and pGADT7 constructs in S. cerevisiae PJ69-4a; growth on SD lacking Leu, Trp and Ade (SD-LTA)
# [4] = biological target: GST-AtBMI1a (Arabidopsis thaliana); assay: pull-down; agarose beads coated with GST or GST fusion protein, incubated with total protein extracts of two-week-old transgenic Arabidopsis seedlings; Western blot with anti-FLAG or anti-GFP; only the target purified
# [5] = biological target: GST-AtBMI1b (Arabidopsis thaliana); assay: as above
Molecule,binding [2],binding [3],further results
AtBMI1b (Arabidopsis thaliana),,,binding [1]: binds
"RFP-AL2 (protein, UniProt Q9SRM4 1-246) MAAAAVSSNPRTVEEIFKDYSARRAALLRALTKDVDDFYSQCDPEKENLCLYGHPNESWEVNLPAEEVPPELPEPALGINFARDGMQRKDWLSLVAVHSDCWLLSVSFYFGARLNRNERKRLFSLINDLPTLFDVVTGRKAMKDNKPSSDSGSKSRNGTKRSIDGQTKSSTPKLMEESYEEEEEEDEHGDTLCGSCGGHYTNEEFWICCDVCERWYHGKCVKITPAKAESIKQYKCPPCCAKKGRQ",binds,,
"AtRING1aN (aa 1-218) (domain or fragment, UniProt Q9FKW0 1-218) MSVKNNSFSSAEIPDVADQPRDRFNPEATQDLQEKDETKEEKEGDEEVKHDEAEEDQEVVKPNDAEEDDDGDDAEEDEEEEVEAEEDEEAEEEEEEEEEEEEEEEDSKERSPSSISGDQSEFMEIDLGEIRKDVQCPICLGIIKKTRTVMECLHRFCRECIDKSMRLGNNECPACRKHCASRRSLRDDPKFDALIAALFTNIDSYEEEELAFHEDEMA",,binds,
"AtRING1a-RFP (protein, UniProt Q9FKW0 1-522) MSVKNNSFSSAEIPDVADQPRDRFNPEATQDLQEKDETKEEKEGDEEVKHDEAEEDQEVVKPNDAEEDDDGDDAEEDEEEEVEAEEDEEAEEEEEEEEEEEEEEEDSKERSPSSISGDQSEFMEIDLGEIRKDVQCPICLGIIKKTRTVMECLHRFCRECIDKSMRLGNNECPACRKHCASRRSLRDDPKFDALIAALFTNIDSYEEEELAFHEDEMARNKQIQASIAQISQRQSEALVKRRSLGKEAAVLMRSPRIASGSRRRRNSRNMEQQNASEAHEDDDNDDNNNRGRDKDSSSDERGTEVRQKKRRKRSTSRSTQHPSSSGANKNNGNCADNDTEVYRDTKGISPGLVWNPEILAWGRGGTRSNTRHGNNTSGGSSKSVRNARVNKLVEYLRSSVDGSSVELDIHVKLVSLDTKCIPDLPQPYLCCRPTLLVKQLREFVALQIHLKTEEVELLVTRRRVGEDAAIENLPAVTPASAAASKDEMLSLEDNETLSRLKIDFISSHEQHLIIAYRKKQTE",binds,,
"AL7 (protein, UniProt Q8LA16 1-252) MEGIQHPIPRTVEEVFSDFRGRRAGLIKALSTDVQKFYHQCDPEKENLCLYGLPNETWEVNLPVEEVPPELPEPALGINFARDGMQEKDWISLVAVHSDSWLISVAFYFGARFGFGKNERKRLFQMINDLPTIFEVVTGNAKQSKDQSANHNSSRSKSSGGKPRHSESHTKASKMSPPPRKEDESGDEDEDDEQGAVCGACGDNYGGDEFWICCDACEKWFHGKCVKITPAKAEHIKHYKCPSCTTSKKMKA",,binds,
"RFP-AL6 (protein, UniProt Q8S8M9 1-256) MEGITHPIPRTVEEVFSDFRGRRAGLIKALTNDMVKFYQTCDPEKENLCLYGLPNETWEVNLPVEEVPPELPEPALGINFARDGMQEKDWVSLVAVHSDSWLLSVAFYFGARFGFGKNERKRLFQMINELPTIFEVVSGNAKQSKDLSVNNNNSKSKPSGVKSRQSESLSKVAKMSSPPPKEEEEEEDESEDESEDDEQGAVCGACGDNYGTDEFWICCDACEKWFHGKCVKITPAKAEHIKHYKCPTCSNKRARP",binds,,
"GFP-AL6 (protein, UniProt Q8S8M9 1-256) MEGITHPIPRTVEEVFSDFRGRRAGLIKALTNDMVKFYQTCDPEKENLCLYGLPNETWEVNLPVEEVPPELPEPALGINFARDGMQEKDWVSLVAVHSDSWLLSVAFYFGARFGFGKNERKRLFQMINELPTIFEVVSGNAKQSKDLSVNNNNSKSKPSGVKSRQSESLSKVAKMSSPPPKEEEEEEDESEDESEDDEQGAVCGACGDNYGTDEFWICCDACEKWFHGKCVKITPAKAEHIKHYKCPTCSNKRARP",,,binding [4]: binds; binding [5]: binds

# The next lines start with results.
binding [2],binding [3],Molecule,further results
,binds,"AL2 (protein, UniProt Q9SRM4 1-246) MAAAAVSSNPRTVEEIFKDYSARRAALLRALTKDVDDFYSQCDPEKENLCLYGHPNESWEVNLPAEEVPPELPEPALGINFARDGMQRKDWLSLVAVHSDCWLLSVSFYFGARLNRNERKRLFSLINDLPTLFDVVTGRKAMKDNKPSSDSGSKSRNGTKRSIDGQTKSSTPKLMEESYEEEEEEDEHGDTLCGSCGGHYTNEEFWICCDVCERWYHGKCVKITPAKAESIKQYKCPPCCAKKGRQ",
binds,,"RFP-AL1 (protein, UniProt Q9FFF5 1-241) MAAESSNPRTVEEIFKDFSGRRSGFLRALSVDVDKFYSLCDPEMENLCLYGHPNGTWEVNLPAEEVPPELPEPALGINFARDGMQRKDWLSLVAVHSDCWLLSVSSYFGARLNRNERKRLFSLINDLPTLFEVVTGRKPIKDGKPSMDLGSKSRNGVKRSIEGQTKSTPKLMEESYEDEDDEHGDTLCGSCGGNYTNDEFWICCDVCERWYHGKCVKITPAKAESIKQYKCPSCCTKKGRQ",
,binds,"AL1 (protein, UniProt Q9FFF5 1-241) MAAESSNPRTVEEIFKDFSGRRSGFLRALSVDVDKFYSLCDPEMENLCLYGHPNGTWEVNLPAEEVPPELPEPALGINFARDGMQRKDWLSLVAVHSDCWLLSVSSYFGARLNRNERKRLFSLINDLPTLFEVVTGRKPIKDGKPSMDLGSKSRNGVKRSIEGQTKSTPKLMEESYEDEDDEHGDTLCGSCGGNYTNDEFWICCDVCERWYHGKCVKITPAKAESIKQYKCPSCCTKKGRQ",
,binds,"AL5 (protein, UniProt Q5XEM9 1-260) MEGGTAHYSPRTVEEVFRDFKGRRAGIIQALTTDVEDFFQQCDPEKQNLCLYGFPNEVWEVNLPAEEVPPELPEPALGINFARDGMQERNWLSLVAVHSDAWLLSVSFYFGSRFGFDRADRKRLFSMINEVPTVYEVVTGNAEKQTKEMPSSANQNGNRSKSNSKMRGLESKSSKTIHAKDEEEGLELEEGEEEEDEDEDEHGETLCGACGDNYASDEFWICCDMCEKWFHGECVKITPARAEHIKHYKCPTCSNKRARP",
binds,,"RFP-AL7 (protein, UniProt Q8LA16 1-252) MEGIQHPIPRTVEEVFSDFRGRRAGLIKALSTDVQKFYHQCDPEKENLCLYGLPNETWEVNLPVEEVPPELPEPALGINFARDGMQEKDWISLVAVHSDSWLISVAFYFGARFGFGKNERKRLFQMINDLPTIFEVVTGNAKQSKDQSANHNSSRSKSSGGKPRHSESHTKASKMSPPPRKEDESGDEDEDDEQGAVCGACGDNYGGDEFWICCDACEKWFHGKCVKITPAKAEHIKHYKCPSCTTSKKMKA",
,binds,"AL6 (protein, UniProt Q8S8M9 1-256) MEGITHPIPRTVEEVFSDFRGRRAGLIKALTNDMVKFYQTCDPEKENLCLYGLPNETWEVNLPVEEVPPELPEPALGINFARDGMQEKDWVSLVAVHSDSWLLSVAFYFGARFGFGKNERKRLFQMINELPTIFEVVSGNAKQSKDLSVNNNNSKSKPSGVKSRQSESLSKVAKMSSPPPKEEEEEEDESEDESEDDEQGAVCGACGDNYGTDEFWICCDACEKWFHGKCVKITPAKAEHIKHYKCPTCSNKRARP",

# Results are given in words; binding and its absence hold for the method and conditions named. A result given as binding can be weak or reduced; the word gives no strength. For some assays here: Binding seen in cells or lysates may run through a third protein. For some assays here: Sequences can lack the tags named with a protein.
